According to patent publication US20230277510A1, “SIROLIMUS MICROSPHERES AND METHOD OF MAKING SIROLIMUS MICROSPHERES” (M.A. Med Alliance SA, priority 2022, published 2023):
At least one structure is not confirmed: it was looked up by name or label, or the drawing left a doubt.

Experiment: X-ray diffractometry (XRD) crystallinity
Assay type: physicochemical
Conditions: FIG. 14, listed as raw SRL powder

CO[C@H]1C[C@@H]2CC[C@@H](C)[C@@](O)(O2)C(=O)C(=O)N2CCCC[C@H]2C(=O)O[C@H]([C@H](C)C[C@@H]2CC[C@@H](O)[C@H](OC)C2)CC(=O)[C@H](C)/C=C(\C)[C@@H](O)[C@@H](OC)C(=O)[C@H](C)C[C@H](C)/C=C/C=C/C=C/1C [SRL, sirolimus]
crystallinity: ~56%
